From the supplement of paper PMC8104966 come the findings set out here.

The other results are listed elsewhere or left out. Repeats in this data set agree poorly, so a single value says little.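 Fusion between ACE2-bearing and full-length-spike-bearing U2OS cells was measured by imaging as the percentage of nuclei with both cell types' fluorescent markers. An inhibitory hit is a non-toxic compound whose fusion z-score is below -3, more than three standard deviations beneath the plate's DMSO wells.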

This test relates to U2OS ACE2 x SARS-CoV-2 spike co-culture. The test can be described thus: cell-cell fusion (fraction fused) z-score vs plate DMSO control; higher = more fusion. The following applies: 30 µM; 5 h; toxicity class: non-toxic, passed QC.
Take `Cc1nc2n(c(=O)c1CCN1CCC(c3noc4cc(F)ccc34)CC1)CCCC2`: the “cell-cell fusion (z-score)” value was inactive: 1.88.

Turning to `CC(=O)O.Cc1cc2c(C(C)C)c(O)c(O)c(C=O)c2c(O)c1-c1c(C)cc2c(C(C)C)c(O)c(O)c(C=O)c2c1O`, the “cell-cell fusion (z-score)” value was active: -5.38. Take `Cl.N=c1ccn2c(n1)OC1[C@@H](O)[C@@H](CO)O[C@H]12` (stereo partly specified) [Ancitabine hydrochloride]: the “cell-cell fusion (z-score)” value is inactive: 1.66. As to `Br.CCCN(CCC)[C@@H]1CCc2ccc(O)cc2C1` [R-(+)-7-Hydroxy-DPAT hydrobromide], the “cell-cell fusion (z-score)” value is inactive: -2.69. For the compound `COCCc1ccc(OCC(O)CNC(C)C)cc1.COCCc1ccc(OCC(O)CNC(C)C)cc1.O=C(O)[C@H](O)[C@@H](O)C(=O)O` (stereo unspecified) [Metoprolol tartrate], the “cell-cell fusion (z-score)” value was inactive: 2.73. To `CC(C)NCC(O)COc1cccc2[nH]ccc12` (stereo unspecified) belongs inactive: 0.298; to `CC(C)NCC(O)COc1cccc2[nH]ccc12` (stereo unspecified) [Pindolol], inactive: 0.689. To `CCCSc1ccc2nc(NC(=O)OC)[nH]c2c1` [Albendazole] belongs inactive: 3.02; to `N[C@@H](CCC(=O)N[C@H](CSN=O)C(=O)NCC(=O)O)C(=O)O` [S-Nitrosoglutathione], inactive: 2.48. For the compound `COc1ccc(OCC2c3cc(OC)c(OC)cc3CCN2C(=O)c2cccc(Cl)c2)cc1` (stereo unspecified), the “cell-cell fusion (z-score)” value is inactive: -2.42. Consider `CC(=O)Oc1ccc(C(c2ccc(OC(C)=O)cc2)c2ccccn2)cc1`, for which the “cell-cell fusion (z-score)” value is inactive: 1.37. In the case of `CCCN(CCc1ccccc1)C1CCc2c(O)cccc2C1.Cl` (racemic) [(±)-PPHT hydrochloride] it was inactive: 0.633; in that of `Cc1ccccc1C(=O)Nc1ccc(C(=O)N2CCCC(O)c3cc(Cl)ccc32)c(C)c1` (stereo unspecified) [Tolvaptan], inactive: 1.42; in that of `C=C1[C@H](CO)[C@@H](O)C[C@@H]1n1cnc2c(=O)[nH]c(N)nc21` [Entecavir], inactive: 2.51. In the case of `Nc1nc(Cl)nc2c1ncn2[C@H]1C[C@H](O)[C@@H](CO)O1` [Cladribine] it was inactive: 0.435; in that of `CC(=O)N(CC(O)CO)c1c(I)c(C(=O)NCCO)c(I)c(C(=O)NCC(O)CO)c1I` (stereo unspecified), inactive: 1.86; in that of `O=c1oc2c(O)c(O)cc3c(=O)oc4c(O)c(O)cc1c4c23`, inactive: 1.49. Consider `O=C1c2ccccc2-c2nc3nonc3nc21`, for which the “cell-cell fusion (z-score)” value was inactive: 0.176.

In the case of `C=C1CC2OC2(C)CC[C@@H]2[C@@H]1CC2(C)C` (stereo partly specified), the “cell-cell fusion (z-score)” value is inactive: 1.93. To `Cc1ccc(O)c(N=Nc2ccccc2)n1` belongs inactive: 0.803; to `CN(C)c1nc(N(C)C)nc(N(C)C)n1` [Altretamine], inactive: 2.04; to `CN(C)c1nc(N(C)C)nc(N(C)C)n1`, inactive: 3.77. To `COC(=O)CCC(=O)CN.Cl` [Methyl Aminolevulinate Hydrochloride] belongs inactive: 0.704. With `Cl.OC(c1cc(C(F)(F)F)nc2c(C(F)(F)F)cccc12)C1CCCCN1` (stereo unspecified), the “cell-cell fusion (z-score)” value was inactive: 2.61.

With `OC[C@@H](O)[C@@H](O)[C@@H](O)[C@H](O)[C@@H](O)CO`, the “cell-cell fusion (z-score)” value is inactive: 2.62.

Take `CN[C@H](CC(=O)O)C(=O)O`: the “cell-cell fusion (z-score)” value is inactive: 2.95.

For the compound `CN[C@H](CC(=O)O)C(=O)O` [N-Methyl-D-aspartic acid], the “cell-cell fusion (z-score)” value was inactive: 2.93. To `O=C1/C(=C/c2cccs2)CCC/C1=C\c1cccs1` belongs inactive: 3.29; to `Br.CC[C@H]1CN2CCC1C[C@@H]2[C@H](O)c1ccnc2ccc(OC)cc12.O` (stereo partly specified), inactive: 2.78; to `COc1ccc2cc([C@H](C)C(=O)[O-])ccc2c1.[Na+]` [(-)-Naproxen sodium], inactive: 2.43. In the case of `CCOC(=O)O[C@]1(C(=O)OCCl)CC[C@H]2[C@@H]3CCC4=CC(=O)C=C[C@]4(C)[C@H]3[C@@H](O)C[C@@]21C` [Loteprednol etabonate] it was inactive: 3.42. To `NS(=O)(=O)Cc1noc2ccccc12` [Zonisamide] belongs inactive: 2.31; to `CCCCCN(C)CCC(O)(P(=O)([O-])O)P(=O)(O)O.[Na+]` [Ibandronate sodium], inactive: 2.26; to `Nc1ccc(C(=O)NCC(=O)O)cc1` [4-Aminohippuric Acid], inactive: 3.07. For `CCCS(=O)(=O)Nc1ccc(F)c(C(=O)c2c[nH]c3ncc(-c4ccc(Cl)cc4)cc23)c1F` [Vemurafenib (PLX4032, RG7204)], the “cell-cell fusion (z-score)” value is inactive: 1.59.

As to `CCCS(=O)(=O)Nc1ccc(F)c(C(=O)c2c[nH]c3ncc(-c4ccc(Cl)cc4)cc23)c1F` [Vemurafenib (PLX4032)], the “cell-cell fusion (z-score)” value was inactive: 2.07. In the case of `O=C(O)c1ccc(-n2nc(-c3ccccc3O)nc2-c2ccccc2O)cc1` [Deferasirox] it was inactive: 1.98. To `Nc1nc(=O)c2nc(CNc3ccc(C(=O)N[C@@H](CCC(=O)O)C(=O)O)cc3)cnc2[nH]1` [Folic acid] belongs inactive: 3.65. To `COC(=O)C(N)CS.Cl` (stereo unspecified) belongs inactive: 1.75; to `Cc1ccc(S(=O)(=O)NC(=O)NN2CCCCCC2)cc1` [Tolazamide], inactive: 1.9.

As for `CC(C)(CO)Cc1cc(C(C)(C)C)c(O)c(C(C)(C)C)c1`, the “cell-cell fusion (z-score)” value is inactive: 3.06.

Consider `O=S(=O)([O-])NC1CCCCC1.[Na+]`, for which the “cell-cell fusion (z-score)” value is inactive: 2.95. As to `Cc1cc(C(C)(C)C)c(O)c(C(C)(C)C)c1`, the “cell-cell fusion (z-score)” value is inactive: 3.46. In the case of `CNCCCC12CCC(c3ccccc31)c1ccccc12.Cl` [Maprotiline hydrochloride] it was inactive: 0.221; in that of `O=C(c1cc(Cc2n[nH]c(=O)c3ccccc23)ccc1F)N1CCN(C(=O)C2CC2)CC1` [Olaparib (AZD2281)], inactive: 2.18; in that of `CCCCCCCCCc1ccc(OCCOCCOCCOCCOCCOCCOCCOCCOCCO)cc1`, inactive: 2. On to `COC(c1ccccc1)(c1ccccc1)[C@H](Oc1nc(C)cc(C)n1)C(=O)O` [Ambrisentan], for which the “cell-cell fusion (z-score)” value was inactive: 2.48.

As for `Cc1cccc(C)c1NC(=O)C(C)N.Cl` (stereo unspecified) [Tocainide hydrochloride], the “cell-cell fusion (z-score)” value was inactive: -0.451. To `Cc1cccc(C)c1NC(=O)C(C)N.Cl` (stereo unspecified) belongs inactive: 0.723. `Cc1c(CN2CCN(C(=O)[C@H](C)O)CC2)sc2c(N3CCOCC3)nc(-c3cnc(N)nc3)nc12`: the “cell-cell fusion (z-score)” value was inactive: 1.46.

For `CCOCCOc1ccccc1C(N)=O`, the “cell-cell fusion (z-score)” value is inactive: 1.58.

`Clc1ccccc1C(c1ccccc1)(c1ccccc1)n1ccnc1` [Clotrimazole]: the “cell-cell fusion (z-score)” value was inactive: 0.907. To `CC(C)n1c(/C=C/[C@@H](O)C[C@@H](O)CC(=O)[O][Na])c(-c2ccc(F)cc2)c2ccccc21` [Fluvastatin sodium (Lescol)] belongs inactive: 1.04.

On to `C[C@]12C=CC(=O)C=C1CC[C@H]1[C@@H]3C[C@@H](O)[C@](O)(C(=O)CO)[C@@]3(C)C[C@H](O)[C@@]12F` [Triamcinolone], for which the “cell-cell fusion (z-score)” value is inactive: 1.08. To `CN1CCC(=C2c3ccccc3CC(=O)c3sccc32)CC1.O=C(O)/C=C/C(=O)O` belongs inactive: 3.94. To `CCCCOC(=O)c1ccccc1C(=O)OCCCC` belongs inactive: 3.63; to `COc1ccc2c(c1O)-c1c(OC)c(OC)cc3c1[C@H](C2)N(C)CC3`, inactive: 1.48; to `C=C1CC[C@H](O)C/C1=C/C=C1\CCCC2(C)C1CCC2C(C)CCCC(C)C` (stereo partly specified), inactive: 1.39. To `Cn1cc(-c2ccc3nnc(Sc4ccc5ncccc5c4)n3n2)cn1` belongs inactive: 0.888. With `CC(C(=O)O)c1cccc(C(=O)c2ccccc2)c1` (stereo unspecified) [Ketoprofen], the “cell-cell fusion (z-score)” value is inactive: 2.54. To `O=P1(N(CCCl)CCCl)NCCCO1` (stereo unspecified) [Cyclophosphamide monohydrate] belongs inactive: 1.78. In the case of `Nc1cc2c(ncn2CCOCP(=O)(O)O)c(=O)[nH]1.O` [PMEG hydrate] it was inactive: 2.74; in that of `C=CCNC(N)=S`, inactive: 1.46.

For the compound `COc1ccc2c(c1)[nH]c1c(C)nccc12`, the “cell-cell fusion (z-score)” value is inactive: 0.673. In the case of `C1CNCCN1.C[C@]12CCC3c4ccc(OS(=O)(=O)O)cc4CCC3C1CCC2=O` (stereo partly specified) it was inactive: 3.23.

`CCCCCCCCCCCCCCCC(=O)OC(CC(=O)O)C[N+](C)(C)C.[Cl-]` (racemic) [Palmitoyl-DL-Carnitine chloride]: the “cell-cell fusion (z-score)” value was inactive: -1.02. To `N=C1NCCC(C2NC(=O)/C(=C\NC(N)=O)NC(=O)C(CNC(=O)CC(N)CCCN)NC(=O)C(CO)NC(=O)C(N)CNC2=O)N1.O=S(=O)(O)O` (stereo unspecified) belongs inactive: 1.14; to `C=C[C@@]1(C)CC(=O)[C@@]2(O)[C@](C)(O1)[C@@H](O)[C@@H](O)C1C(C)(C)CC[C@H](O)[C@@]12C` (stereo partly specified), inactive: -0.381; to `CC(=O)OCC(=O)[C@H]1CCC2C3CCC4=CC(=O)CC[C@]4(C)C3CC[C@@]21C` (stereo partly specified), inactive: 1.03.

Take `C=C1/C(=C/C=C2\CCC[C@@]3(C)[C@H]2CC[C@H]3[C@H](C)/C=C/[C@@H](C)C(C)C)C[C@H](O)C[C@@H]1O` [Doxercalciferol (Hectorol)]: the “cell-cell fusion (z-score)” value was inactive: 1.44. In the case of `CCCOc1ccc2nc(NC(=O)OC)[nH]c2c1` it was inactive: 3.07; in that of `N=C(N)c1ccc(OCCCCCOc2ccc(C(=N)N)cc2)cc1.O=[SH](=O)OCCO.O=[SH](=O)OCCO` [Pentamidine isethionate], inactive: 2.06; in that of `NNCCc1ccccc1.O=S(=O)(O)O`, inactive: 2.04. In the case of `NNCCc1ccccc1.O=S(=O)(O)O` [Phenelzine sulfate] it was inactive: -1.19; in that of `Cl.N=C(N)NC(=O)Cc1c(Cl)cccc1Cl` [Guanfacine hydrochloride], inactive: 1.03; in that of `Nc1ccncc1N` [Amifampridine], inactive: 1.58.
